# Test results: PubChem BioAssay (EPA / NIEHS)
# Protein sequences, listed by entry. Tags and fused reporters are not part of them.
# UniProt P04637, whole entry, looked up: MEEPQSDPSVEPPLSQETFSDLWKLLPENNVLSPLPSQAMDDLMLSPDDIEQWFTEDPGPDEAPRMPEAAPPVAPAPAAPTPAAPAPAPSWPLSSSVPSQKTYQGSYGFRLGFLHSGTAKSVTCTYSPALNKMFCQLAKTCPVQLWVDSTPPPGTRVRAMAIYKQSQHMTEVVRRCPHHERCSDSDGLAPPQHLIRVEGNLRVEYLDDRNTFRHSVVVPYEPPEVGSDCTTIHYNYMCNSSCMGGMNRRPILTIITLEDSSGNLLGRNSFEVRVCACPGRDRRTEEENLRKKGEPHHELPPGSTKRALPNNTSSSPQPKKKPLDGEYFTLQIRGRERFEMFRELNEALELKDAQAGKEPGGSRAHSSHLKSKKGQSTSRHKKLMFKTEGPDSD
# Inconclusive results, whose numbers are uncertain, are shown with a selection of clear calls. Where the call is inconclusive, the potency comes from a doubtful curve fit. The source made the active and inactive calls. Rule for the calls: active = hit-call score of the fitted dose curve at least 0.9, where 1 is the maximum; inconclusive = response in the unintended direction; inactive = score below 0.9.
# System: not listed separately
# Assay: TOX21_p53_BLA_p3_viability: Viability Assessment in the Tox21 HCT-116 p53 Agonism Beta-lactamase Assay, Phase 3 (AID 2283593);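 note: cells exposed to compound for 16 h before reading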
# How it was run: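 Cellular ATP was quantified by CellTiter-Glo luminescence, read after 30 min at room temperature. Beforehand, HCT116 cells (4000/well) received compound 5 h post-seeding, 217-fold diluted from DMSO, then incubated 16 h at 37C.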
Compound,AC50,outcome
NS(=O)(=O)c1ccccc1OC(F)(F)F,inconclusive: 0.261 µM,–
CCC(C(=O)OCCOCCN(CC)CC)c1ccccc1 (centres undefined),inconclusive: 23 µM,–
Cc1ccccc1C(N)=O,inconclusive: 46.1 µM,–
Nc1ccc2ccccc2c1S(=O)(=O)O,–,inactive
CNc1ccccc1,inconclusive: 46.1 µM,–
CC(N)C(=O)OC(C)(C)Cc1ccc(Cl)cc1 (centres undefined),–,inactive
N[C@@H](C(=O)N[C@@H]1C(=O)N2C(C(=O)O)=C(CSc3cn[nH]n3)CS[C@H]12)c1ccc(O)cc1,inconclusive: 23 µM,–
COC(OC)OC,–,inactive
COc1ccc(C)cc1,inconclusive: 46.1 µM,–
CCCCC(=O)OCC(=O)[C@H]1[C@H](C)C[C@H]2[C@@H]3C[C@H](F)C4=CC(=O)C=C[C@]4(C)[C@@]3(F)[C@@H](O)C[C@@]21C,–,inactive
CC(=O)OC[C@H]1O[C@@H](n2ncc(=O)[nH]c2=O)[C@H](OC(C)=O)[C@@H]1OC(C)=O,inconclusive: 5.9e-05 µM,–
Nc1ncnc(Nc2ccccc2)n1,inconclusive: 23 µM,–
CCCCCCCCCCCCCCCC(=O)OC[C@@H](NC(=O)C(Cl)Cl)[C@H](O)c1ccc([N+](=O)[O-])cc1,–,inactive
COc1ccc(S(=O)(=O)Nc2nnc(CC(C)C)s2)cc1,inconclusive: 0.00473 µM,–
CCN1CCC[C@H]1CNC(=O)c1c(O)c(Cl)cc(Cl)c1OC,inconclusive: 23 µM,–
CCCNCC(O)COc1ccccc1C(=O)CCc1ccccc1 (centres undefined),inconclusive: 23 µM,–
CCN(CC)C(C)=O,inconclusive: 47.9 µM,–
CCCCCCCCCCCCCCCC(=O)NCCO,inconclusive: 23 µM,–
Cn1ccc2cc3c(cc21)CCN3C(=O)Nc1cccnc1,inconclusive: 23 µM,–
O=C(O)c1ccc(CO)o1,inconclusive: 46.8 µM,–

# Target: Cellular tumor antigen p53 (Homo sapiens) (UniProt P04637)
# Assay: TOX21_p53_BLA_p3_ratio: Tox21 HCT-116 p53 Agonism Beta-lactamase Assay, Ratio, Phase 3 (AID 2283596)
# How it was run: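 HCT116 p53-bla cells (4000/well) given compound in DMSO (217-fold dilution) after 5 h, incubated 16 h at 37C. CCF4-AM substrate 2 h at room temperature; 460/530 nm emission ratio, gain fitted against DMSO.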
Compound,outcome,AC50
Clc1ccc(Cn2c(CN3CCCC3)nc3ccccc32)cc1,inactive,–
CCC(Cc1c(I)cc(I)c(O)c1I)C(=O)O (centres undefined),–,inconclusive: 9.1 µM
CCOC(=O)NCCC[Si](OCC)(OCC)OCC,–,inconclusive: 46.1 µM
Cc1onc(-c2ccccc2)c1C(=O)N[C@@H]1C(=O)N2[C@@H]1SC(C)(C)[C@@H]2C(=O)O,–,inconclusive: 23 µM
CC(=O)c1ccc2c(c1)N(CCCN(C)C)c1ccccc1S2,inactive,–
CN1C[C@H](C(=O)N[C@]2(C)O[C@@]3(O)[C@@H]4CCCN4C(=O)[C@H](Cc4ccccc4)N3C2=O)C[C@@H]2c3cccc4[nH]cc(c34)C[C@H]21,inactive,–
CCN(Cc1ccccc1)c1ccccc1,inactive,–
Clc1ccccc1-c1nc(-c2ccncc2)no1,–,inconclusive: 23 µM
Nc1nc2c(ncn2CCC(CO)CO)c(=O)[nH]1,–,inconclusive: 23 µM
O=C1OC(=O)C2CCCCC12 (centres undefined),–,inconclusive: 86.7 µM
N[C@@H](C(=O)N[C@@H]1C(=O)N2C(C(=O)O)=C(CSc3cn[nH]n3)CS[C@H]12)c1ccc(O)cc1,–,inconclusive: 42.7 µM
CCCCC(=O)OCC(=O)[C@H]1[C@H](C)C[C@H]2[C@@H]3C[C@H](F)C4=CC(=O)C=C[C@]4(C)[C@@]3(F)[C@@H](O)C[C@@]21C,inactive,–
CC(=O)OC[C@H]1O[C@@H](n2ncc(=O)[nH]c2=O)[C@H](OC(C)=O)[C@@H]1OC(C)=O,–,active: 3.15 µM
CCCCCCCCCCCCCCCC(=O)OC[C@@H](NC(=O)C(Cl)Cl)[C@H](O)c1ccc([N+](=O)[O-])cc1,–,inconclusive: 23 µM
CCN1CCC[C@H]1CNC(=O)c1c(O)c(Cl)cc(Cl)c1OC,–,inconclusive: 23 µM
CCCNCC(O)COc1ccccc1C(=O)CCc1ccccc1 (centres undefined),–,inconclusive: 23 µM
Cn1ccc2cc3c(cc21)CCN3C(=O)Nc1cccnc1,–,inconclusive: 23 µM
O=C(O)c1ccc(CO)o1,–,inconclusive: 46.8 µM

# Complete entries, looked up by structure.
# CCN(Cc1ccccc1)c1ccccc1 is entered as outcome: inactive
# Clc1ccccc1-c1nc(-c2ccncc2)no1 is entered as AC50: inconclusive: 23 µM
# CCCCC(=O)OCC(=O)[C@H]1[C@H](C)C[C@H]2[C@@H]3C[C@H](F)C4=CC(=O)C=C[C@]4(C)[C@@]3(F)[C@@H](O)C[C@@]21C is entered as outcome: inactive
# CN1C[C@H](C(=O)N[C@]2(C)O[C@@]3(O)[C@@H]4CCCN4C(=O)[C@H](Cc4ccccc4)N3C2=O)C[C@@H]2c3cccc4[nH]cc(c34)C[C@H]21 is entered as outcome: inactive

# System: not listed separately
# Assay: TOX21_p53_BLA_p4_viability: Viability Assessment in the Tox21 HCT-116 p53 Agonism Beta-lactamase Assay, Phase 4 (AID 2283597);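 note: hits lower the luminescence signal meaning cytotoxicity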
# How it was run: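 Compound exposure of HCT116 cells lasts 16 h at 37C, 5% CO2, with DMSO stocks diluted 217-fold. Cellular ATP is then quantified by CellTiter-Glo luminescence after 30 min at room temperature.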
Compound,AC50,outcome
Clc1ccc2cc3ccccc3cc2c1,inconclusive: 46 µM,–
C/C=C/c1ccc(OCC)c(O)c1,inconclusive: 46.1 µM,–
CCN(O)CC,–,inactive
CC(=NO)C(C)=NO,–,inactive
CCCCCCCC,inconclusive: 45.8 µM,–
COc1ccc(OC)c(NC(=O)CC(C)=O)c1,–,inactive
CCC(C)SSC(C)CC (centres undefined),–,inactive
O=C1C2CC3CC1CC(O)(C3)C2,inconclusive: 41.3 µM,–
O=C(Cc1cccs1)N[C@@H]1C(=O)N2C(C(=O)[O-])=C(C[n+]3ccccc3)CS[C@H]12,inconclusive: 4.57 µM,–
NS(=O)(=O)c1ccccc1OC(F)(F)F,inconclusive: 46.1 µM,–
CCC(C(=O)OCCOCCN(CC)CC)c1ccccc1 (centres undefined),inconclusive: 23 µM,–
Cc1ccccc1C(N)=O,inconclusive: 46.1 µM,–
Nc1ccc2ccccc2c1S(=O)(=O)O,inconclusive: 46.8 µM,–
CNc1ccccc1,–,inactive
CC(N)C(=O)OC(C)(C)Cc1ccc(Cl)cc1 (centres undefined),inconclusive: 0.00212 µM,–
COC(OC)OC,inconclusive: 45.5 µM,–
COc1ccc(C)cc1,inconclusive: 46.1 µM,–
Nc1ncnc(Nc2ccccc2)n1,inconclusive: 23 µM,–
COc1ccc(S(=O)(=O)Nc2nnc(CC(C)C)s2)cc1,–,inactive
CCN(CC)C(C)=O,–,inactive
CCCCCCCCCCCCCCCC(=O)NCCO,inconclusive: 23 µM,–
